Cleaved PARP after 72 h of treatment

Source: doi:10.1371/journal.pone.0140310, primary screening data, rounded.

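The test systems are human melanoma cell lines, treated with two drugs together for 72 h and then stained and imaged. Each value is the cleaved-PARP-positive fraction of nuclei relative to DMSO-treated wells, in %, so that 100 equals the control and higher values mean more apoptosis. Concentrations were fixed for each drug; these are the higher of two levels. These are primary screening values without error estimates. The marker varies much from line to line, for technical or biological reasons.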 An unselected part of the screen is shown.

Drug key:
lestaurtinib (0.02 µM): C[C@]12O[C@H](C[C@]1(O)CO)n1c3ccccc3c3c4c(c5c6ccccc6n2c5c31)CNC4=O
vorinostat (0.4 µM): O=C(CCCCCCC(=O)Nc1ccccc1)NO
PF-562271 (0.4 µM): CN(c1ncccc1CNc1nc(Nc2ccc3c(c2)CC(=O)N3)ncc1C(F)(F)F)S(C)(=O)=O
fludarabine (1 µM): Nc1nc(F)nc2c1ncn2[C@@H]1O[C@H](CO)[C@@H](O)[C@@H]1O
TCS401 (8.33 µM): O=C(O)C(=O)Nc1sc2c(c1C(=O)O)CCNC2
fingolimod (10 µM): CCCCCCCCc1ccc(CCC(N)(CO)CO)cc1
tamatinib (2 µM): COc1cc(Nc2ncc(F)c(Nc3ccc4c(n3)NC(=O)C(C)(C)O4)n2)cc(OC)c1OC
T0901317 (7 µM): O=S(=O)(c1ccccc1)N(CC(F)(F)F)c1ccc(C(O)(C(F)(F)F)C(F)(F)F)cc1
CX-4945 (2 µM): O=C(O)c1ccc2c(c1)nc(Nc1cccc(Cl)c1)c1ccncc12
dovitinib (0.5 µM): CN1CCN(c2ccc3nc(-c4c(N)c5c(F)cccc5[nH]c4=O)[nH]c3c2)CC1
temozolomide (10 µM): Cn1nnc2c(C(N)=O)ncn2c1=O
enzastaurin (4 µM): Cn1cc(C2=C(c3cn(C4CCN(Cc5ccccn5)CC4)c4ccccc34)C(=O)NC2=O)c2ccccc21

Combination | A101D | RPMI-7951 | SK-MEL-30 | SK-MEL-28 | WM451Lu | MEL-HO | G-361
tamatinib + fingolimod | 2910 | 2790 | 1470 | 4370 | 4260 | 5920 | 11400
dovitinib + PF-562271 | 138 | 123 | 170 | 58.7 | 180 | 118 | 290
dovitinib + TCS401 | 85.1 | 31.4 | 90.4 | 35.9 | 131 | 132 | 354
CX-4945 + fingolimod | 1010 | 1660 | 1770 | 2250 | 849 | 538 | 4810
temozolomide + vorinostat | 120 | 72.1 | 222 | 441 | 109 | 67.2 | 71.6
enzastaurin + dovitinib | 112 | 510 | 95.1 | 298 | 55.2 | 120 | 238
tamatinib + PF-562271 | 682 | 416 | 156 | 190 | 345 | 44.8 | 171
dovitinib + lestaurtinib | 78.0 | 180 | 190 | 205 | 191 | 136 | 196
enzastaurin + PF-562271 | 92.0 | 208 | 95.3 | 63.2 | 90.3 | 142 | 142
CX-4945 + vorinostat | 80.6 | 278 | 202 | 166 | 173 | 76.8 | 155
fludarabine + lestaurtinib | 68.9 | 140 | 488 | 1950 | 98.9 | 149 | 148
T0901317 + fingolimod | 2710 | 2590 | 888 | 4450 | 10400 | 443 | 18500
temozolomide + PF-562271 | 92.9 | 179 | 74.5 | 189 | 72.3 | 165 | 164
fingolimod + vorinostat | 2950 | 3820 | 1650 | 31200 | 2370 | 7320 | 42300
T0901317 + enzastaurin | 333 | 127 | 106 | 634 | 91.0 | 189 | 51.9
dovitinib + CX-4945 | 93.7 | 138 | 449 | 141 | 208 | 111 | 533
temozolomide + fludarabine | 46.4 | 73.4 | 2310 | 966 | 29.3 | 212 | 178
tamatinib + vorinostat | 634 | 306 | 142 | 122 | 66.9 | 91.0 | 85.1
fingolimod + PF-562271 | 422 | 744 | 3380 | 2530 | 936 | 684 | 7470
vorinostat + PF-562271 | 76.4 | 102 | 84.3 | 176 | 68.4 | 81.4 | 200
vorinostat + TCS401 | 43.6 | 158 | 49.1 | 204 | 309 | 98.4 | 178
PF-562271 + T0901317 | 129 | 105 | 129 | 185 | 49.8 | 111 | 113
fludarabine + dovitinib | 197 | 84.0 | 892 | 1010 | 38.4 | 68.5 | 181
tamatinib + dovitinib | 393 | 70.9 | 120 | 294 | 181 | 115 | 437
PF-562271 + lestaurtinib | 68.0 | 94.9 | 170 | 85.0 | 57.7 | 69.5 | 158
TCS401 + tamatinib | 463 | 221 | 41.8 | 106 | 361 | 101 | 142
enzastaurin + CX-4945 | 179 | 355 | 37.4 | 365 | 184 | 56.0 | 277
T0901317 + temozolomide | 58.7 | 215 | 184 | 544 | 30.8 | 45.2 | 56.3
enzastaurin + lestaurtinib | 115 | 491 | 82.5 | 328 | 152 | 50.5 | 161
fingolimod + dovitinib | 1590 | 10100 | 1480 | 11400 | 3030 | 11700 | 12600
vorinostat + T0901317 | 54.4 | 84.8 | 124 | 274 | 91.6 | 75.5 | 89.5
lestaurtinib + T0901317 | 121 | 105 | 55.3 | 186 | 67.3 | 93.4 | 139

2 of the entries, repeated:

| Combination | A101D | RPMI-7951 | SK-MEL-30 | SK-MEL-28 | WM451Lu | MEL-HO | G-361 |
|---|---|---|---|---|---|---|---|
| temozolomide + PF-562271 | 92.9 | 179 | 74.5 | 189 | 72.3 | 165 | 164 |
| fludarabine + lestaurtinib | 68.9 | 140 | 488 | 1950 | 98.9 | 149 | 148 |